Experimental data taken from patent US20180299431A1, “Explant Assay to Determine the Potential for Compositions to Promote or to Inhibit Neural Tube Defects” (Board of Supervisors of Louisiana State University and …, priority 2015, published 2018).

System: diabetic NOD pregnancies
Assay: NOD diabetic pregnancies and folinic acid supplementation
Type: in vivo, mouse
Procedure: All animal experiments were performed with prior approval from the Pennington Biomedical Research Center IACUC, and were conducted in accordance with the “Guide for the care and use of laboratory animals” of the United States National Institutes of Health. Animals were housed with a 12-hour light/dark cycle, with access to food and water ad libitum. Mice of the Non-Obese Diabetic strain (NOD/ShiLtJ, The Jackson Laboratory, Bar Harbor, Me.; sometimes referred to as “NOD” mice), as well as male mice of strain FVB were kept on Purina™ 5001 diet (calories provided by: Protein, 28.5%; Fat, 13.5%; Carbohydrate, 58%. LabDiet, Purina Mills Inc., Gray Summit, Mo.). Females of strain FVB were kept on Purina 5015 diet (calories provided by: Protein, 19.8%; Fat, 25.3%; Carbohydrate, 54.8%). Blood glucose levels were monitored weekly in NOD mice. Once blood glucose exceeded 250 mg/dl, females were considered diabetic, and were then used for mating and production of embryos. Diabetic as well as normoglycemic NOD female mice were mated to normoglycemic NOD male mice; once NOD males became hyperglycemic, they were retired from the experiment and were no longer used. Supplementation with folinic acid (12.5 mg/kg body weight, once per week by intraperitoneal injection) was initiated at the age of 10 weeks in 56 NOD females. […]

With `Nc1nc(=O)c2c([nH]1)NCC(CNc1ccc(C(=O)N[C@@H](CCC(=O)O)C(=O)O)cc1)N2C=O` (mixture of isomers) [folinic acid] the “time to subsequent onset of hyperglycemia” value (NOD females supplemented from age 10 weeks, 12.5 mg/kg once per week i.p., vs unsupplemented NOD females, Kaplan-Meier p=0.8639) was “did not significantly affect” and the “maternal hyperglycemia levels at mating and at dissection” value (supplemented vs non-supplemented groups, ANOVA p=0.51) was “not significantly different”.
